According to publication PMC7215681:
These are yes or no findings as the source states them, for the method shown. In cells and extracts the contact can be indirect.

The chains behind the UniProt entries cited, without tags or fusion partners. Where a name states a change or a piece, a line headed by the entry shows the natural chain unless it says otherwise.
UniProt P22199: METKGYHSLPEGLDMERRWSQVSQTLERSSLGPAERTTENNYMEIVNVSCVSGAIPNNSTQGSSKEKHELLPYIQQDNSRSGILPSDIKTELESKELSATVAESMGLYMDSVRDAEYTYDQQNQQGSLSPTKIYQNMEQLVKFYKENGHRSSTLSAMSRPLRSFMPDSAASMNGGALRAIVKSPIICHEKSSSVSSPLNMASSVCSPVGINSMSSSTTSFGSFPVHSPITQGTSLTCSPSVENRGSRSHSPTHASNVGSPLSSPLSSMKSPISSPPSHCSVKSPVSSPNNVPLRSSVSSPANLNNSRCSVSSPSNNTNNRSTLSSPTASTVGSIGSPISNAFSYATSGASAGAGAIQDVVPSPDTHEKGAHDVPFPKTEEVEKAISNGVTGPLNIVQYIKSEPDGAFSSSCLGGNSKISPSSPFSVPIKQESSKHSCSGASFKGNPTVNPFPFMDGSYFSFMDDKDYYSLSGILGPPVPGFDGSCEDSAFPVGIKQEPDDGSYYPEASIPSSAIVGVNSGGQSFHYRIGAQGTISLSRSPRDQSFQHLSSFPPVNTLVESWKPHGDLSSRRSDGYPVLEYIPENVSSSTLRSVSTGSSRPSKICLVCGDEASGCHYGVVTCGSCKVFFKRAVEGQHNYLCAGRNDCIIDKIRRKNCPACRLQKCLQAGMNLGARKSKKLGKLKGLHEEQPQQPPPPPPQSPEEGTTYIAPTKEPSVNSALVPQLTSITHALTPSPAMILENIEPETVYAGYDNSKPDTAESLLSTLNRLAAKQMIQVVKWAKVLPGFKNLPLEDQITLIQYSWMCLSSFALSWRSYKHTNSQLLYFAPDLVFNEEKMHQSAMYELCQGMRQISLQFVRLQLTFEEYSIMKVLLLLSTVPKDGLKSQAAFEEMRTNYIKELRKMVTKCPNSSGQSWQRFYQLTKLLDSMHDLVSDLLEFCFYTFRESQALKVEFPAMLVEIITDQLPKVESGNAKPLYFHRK
UniProt P34947: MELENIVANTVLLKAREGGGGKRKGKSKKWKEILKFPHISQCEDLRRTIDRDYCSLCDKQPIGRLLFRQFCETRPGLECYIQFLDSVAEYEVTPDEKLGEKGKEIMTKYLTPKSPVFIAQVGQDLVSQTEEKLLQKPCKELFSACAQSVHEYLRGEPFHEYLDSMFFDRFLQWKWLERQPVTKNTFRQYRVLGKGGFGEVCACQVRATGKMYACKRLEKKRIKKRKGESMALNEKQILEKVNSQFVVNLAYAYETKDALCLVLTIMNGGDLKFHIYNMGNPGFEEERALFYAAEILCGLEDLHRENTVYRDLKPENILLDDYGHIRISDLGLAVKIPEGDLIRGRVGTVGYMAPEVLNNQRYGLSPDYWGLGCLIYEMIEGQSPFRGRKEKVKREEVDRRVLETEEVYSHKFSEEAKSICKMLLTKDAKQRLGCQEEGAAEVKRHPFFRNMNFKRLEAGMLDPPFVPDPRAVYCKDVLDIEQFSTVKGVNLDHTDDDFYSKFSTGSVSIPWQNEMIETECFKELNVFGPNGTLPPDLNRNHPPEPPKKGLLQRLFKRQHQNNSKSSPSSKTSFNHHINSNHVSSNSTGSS

Target: mineralocorticoid receptor (rat (endogenous in H9c2)) (UniProt P22199)
Test: co-IP; H9c2 cells overexpressing ΔNES-GRK5, whole cell lysates; no figure cited

binding: no binding
Substance: dominant negative GRK5 mutant lacking a nuclear export sequence (ΔNES-GRK5) (from UniProt P34947) (enzyme)
